Source: PMC3762332
For at least one entry, the source does not settle the construct or the ends of the probe. For part of these data: Protein sequences can lack the tags named with them.

By UniProt entry, the sequences of proteins in these tests, tags left out. Where a name states a change or a piece, a line headed by the entry shows the natural chain unless it says otherwise.
UniProt Q9BWM5: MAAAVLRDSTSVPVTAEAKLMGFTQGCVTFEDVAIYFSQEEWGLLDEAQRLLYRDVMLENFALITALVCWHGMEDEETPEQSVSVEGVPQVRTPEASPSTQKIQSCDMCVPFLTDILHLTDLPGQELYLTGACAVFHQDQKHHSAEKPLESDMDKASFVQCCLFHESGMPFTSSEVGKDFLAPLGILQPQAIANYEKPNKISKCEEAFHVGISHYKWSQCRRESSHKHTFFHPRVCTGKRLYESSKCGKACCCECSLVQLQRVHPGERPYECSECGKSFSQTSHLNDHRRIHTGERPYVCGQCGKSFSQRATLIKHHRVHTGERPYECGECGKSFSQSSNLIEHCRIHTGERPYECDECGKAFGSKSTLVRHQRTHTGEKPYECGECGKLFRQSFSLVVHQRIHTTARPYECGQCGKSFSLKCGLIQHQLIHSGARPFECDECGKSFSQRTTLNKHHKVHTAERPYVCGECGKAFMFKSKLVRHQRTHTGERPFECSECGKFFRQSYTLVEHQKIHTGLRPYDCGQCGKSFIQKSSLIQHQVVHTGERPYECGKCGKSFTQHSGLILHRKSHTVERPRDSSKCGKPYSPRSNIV
UniProt P43694: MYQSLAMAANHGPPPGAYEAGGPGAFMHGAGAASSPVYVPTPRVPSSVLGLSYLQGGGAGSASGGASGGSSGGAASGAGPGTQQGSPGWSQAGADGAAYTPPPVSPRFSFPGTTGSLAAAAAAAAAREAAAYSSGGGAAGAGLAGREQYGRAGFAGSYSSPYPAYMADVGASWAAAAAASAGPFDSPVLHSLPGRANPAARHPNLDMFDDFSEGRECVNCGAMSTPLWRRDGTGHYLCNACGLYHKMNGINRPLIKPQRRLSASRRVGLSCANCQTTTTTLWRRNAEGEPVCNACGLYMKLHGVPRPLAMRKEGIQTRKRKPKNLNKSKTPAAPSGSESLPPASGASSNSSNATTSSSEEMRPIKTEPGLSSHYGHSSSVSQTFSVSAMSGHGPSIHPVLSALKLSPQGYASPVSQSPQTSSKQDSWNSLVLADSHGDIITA
UniProt P19793: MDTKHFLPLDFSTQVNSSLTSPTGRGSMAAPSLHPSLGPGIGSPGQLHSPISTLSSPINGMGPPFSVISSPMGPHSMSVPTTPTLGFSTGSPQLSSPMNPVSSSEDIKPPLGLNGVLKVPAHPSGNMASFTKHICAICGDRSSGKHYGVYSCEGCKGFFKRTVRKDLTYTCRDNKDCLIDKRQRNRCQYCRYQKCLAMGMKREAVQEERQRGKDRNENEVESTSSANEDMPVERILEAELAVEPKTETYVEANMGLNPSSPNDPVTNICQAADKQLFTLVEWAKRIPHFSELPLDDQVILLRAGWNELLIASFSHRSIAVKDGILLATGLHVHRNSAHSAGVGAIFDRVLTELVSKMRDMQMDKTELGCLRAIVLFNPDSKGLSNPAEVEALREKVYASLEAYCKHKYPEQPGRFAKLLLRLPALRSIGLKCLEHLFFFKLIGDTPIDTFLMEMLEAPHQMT
UniProt P20719: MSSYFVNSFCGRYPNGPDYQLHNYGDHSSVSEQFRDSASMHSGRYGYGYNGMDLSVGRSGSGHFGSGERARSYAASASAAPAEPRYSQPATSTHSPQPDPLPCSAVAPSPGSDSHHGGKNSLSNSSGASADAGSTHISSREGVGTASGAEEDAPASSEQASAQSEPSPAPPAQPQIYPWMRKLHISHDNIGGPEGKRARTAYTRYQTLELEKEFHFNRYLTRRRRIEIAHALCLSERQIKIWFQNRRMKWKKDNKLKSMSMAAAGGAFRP
UniProt P37231: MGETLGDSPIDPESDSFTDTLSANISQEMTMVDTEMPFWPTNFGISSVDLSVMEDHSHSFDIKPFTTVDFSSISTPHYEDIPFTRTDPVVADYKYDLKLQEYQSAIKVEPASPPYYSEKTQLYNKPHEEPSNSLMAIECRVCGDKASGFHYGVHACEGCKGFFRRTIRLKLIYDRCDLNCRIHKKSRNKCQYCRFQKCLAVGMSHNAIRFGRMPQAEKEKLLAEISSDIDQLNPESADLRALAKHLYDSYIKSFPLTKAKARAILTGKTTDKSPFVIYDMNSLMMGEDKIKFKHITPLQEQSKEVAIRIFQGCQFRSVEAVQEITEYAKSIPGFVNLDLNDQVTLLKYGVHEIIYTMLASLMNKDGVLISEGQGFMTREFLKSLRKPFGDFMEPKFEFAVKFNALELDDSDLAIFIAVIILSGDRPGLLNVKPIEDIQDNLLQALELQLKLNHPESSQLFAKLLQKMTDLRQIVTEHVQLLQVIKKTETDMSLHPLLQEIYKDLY
UniProt P31269, whole entry: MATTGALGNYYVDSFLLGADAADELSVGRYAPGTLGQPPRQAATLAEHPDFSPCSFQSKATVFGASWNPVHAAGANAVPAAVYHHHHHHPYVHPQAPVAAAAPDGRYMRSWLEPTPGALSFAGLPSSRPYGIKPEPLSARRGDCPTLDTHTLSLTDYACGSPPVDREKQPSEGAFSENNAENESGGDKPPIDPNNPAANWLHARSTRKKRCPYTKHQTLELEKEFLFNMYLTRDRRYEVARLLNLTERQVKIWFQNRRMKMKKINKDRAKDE
UniProt O00716: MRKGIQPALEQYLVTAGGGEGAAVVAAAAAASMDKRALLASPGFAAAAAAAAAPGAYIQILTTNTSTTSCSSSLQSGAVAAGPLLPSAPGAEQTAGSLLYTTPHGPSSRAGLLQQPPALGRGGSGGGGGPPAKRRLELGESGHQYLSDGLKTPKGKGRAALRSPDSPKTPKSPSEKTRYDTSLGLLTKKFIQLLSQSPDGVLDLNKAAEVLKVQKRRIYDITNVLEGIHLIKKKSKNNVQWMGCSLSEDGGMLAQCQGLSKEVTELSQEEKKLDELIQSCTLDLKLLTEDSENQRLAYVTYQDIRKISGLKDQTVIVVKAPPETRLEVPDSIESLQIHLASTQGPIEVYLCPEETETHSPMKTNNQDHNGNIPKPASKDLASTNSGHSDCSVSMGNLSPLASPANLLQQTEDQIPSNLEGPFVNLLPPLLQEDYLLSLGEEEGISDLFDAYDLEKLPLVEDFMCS
UniProt Q14145, whole entry: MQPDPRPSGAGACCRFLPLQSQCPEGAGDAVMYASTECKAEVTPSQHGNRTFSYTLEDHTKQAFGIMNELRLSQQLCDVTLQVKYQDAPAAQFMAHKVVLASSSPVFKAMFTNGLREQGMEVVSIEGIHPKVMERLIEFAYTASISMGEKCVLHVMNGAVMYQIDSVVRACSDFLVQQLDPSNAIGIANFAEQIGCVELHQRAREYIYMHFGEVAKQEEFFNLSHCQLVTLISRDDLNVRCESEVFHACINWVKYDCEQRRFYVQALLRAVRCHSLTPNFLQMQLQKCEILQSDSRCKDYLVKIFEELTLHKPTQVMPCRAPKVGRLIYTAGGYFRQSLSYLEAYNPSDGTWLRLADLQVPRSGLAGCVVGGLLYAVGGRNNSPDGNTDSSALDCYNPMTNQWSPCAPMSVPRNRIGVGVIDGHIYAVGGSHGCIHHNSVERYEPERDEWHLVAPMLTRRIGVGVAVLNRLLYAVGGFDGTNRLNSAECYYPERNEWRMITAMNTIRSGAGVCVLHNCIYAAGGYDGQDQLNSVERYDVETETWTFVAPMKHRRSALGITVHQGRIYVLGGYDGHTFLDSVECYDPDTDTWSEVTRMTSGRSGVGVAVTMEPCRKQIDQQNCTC
UniProt P17035: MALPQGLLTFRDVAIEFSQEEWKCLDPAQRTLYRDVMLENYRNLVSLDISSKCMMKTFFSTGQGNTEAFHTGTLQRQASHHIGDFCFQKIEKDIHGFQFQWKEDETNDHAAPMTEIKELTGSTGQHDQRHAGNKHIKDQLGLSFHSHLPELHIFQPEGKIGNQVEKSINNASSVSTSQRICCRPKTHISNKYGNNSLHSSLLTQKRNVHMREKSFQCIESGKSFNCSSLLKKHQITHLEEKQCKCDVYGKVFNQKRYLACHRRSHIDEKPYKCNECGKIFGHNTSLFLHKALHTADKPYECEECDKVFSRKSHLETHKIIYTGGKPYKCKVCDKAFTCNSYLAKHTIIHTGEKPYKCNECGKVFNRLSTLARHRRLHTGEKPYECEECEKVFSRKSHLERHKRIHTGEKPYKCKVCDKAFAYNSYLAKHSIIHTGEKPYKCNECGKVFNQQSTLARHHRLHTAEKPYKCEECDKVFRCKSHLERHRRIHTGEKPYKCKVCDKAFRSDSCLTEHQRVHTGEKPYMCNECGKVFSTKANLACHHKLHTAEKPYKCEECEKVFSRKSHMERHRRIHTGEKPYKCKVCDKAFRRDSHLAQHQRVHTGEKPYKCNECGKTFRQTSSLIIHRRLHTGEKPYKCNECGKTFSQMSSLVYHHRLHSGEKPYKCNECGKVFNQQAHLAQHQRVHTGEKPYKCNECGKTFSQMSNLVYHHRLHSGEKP
UniProt Q8NC26: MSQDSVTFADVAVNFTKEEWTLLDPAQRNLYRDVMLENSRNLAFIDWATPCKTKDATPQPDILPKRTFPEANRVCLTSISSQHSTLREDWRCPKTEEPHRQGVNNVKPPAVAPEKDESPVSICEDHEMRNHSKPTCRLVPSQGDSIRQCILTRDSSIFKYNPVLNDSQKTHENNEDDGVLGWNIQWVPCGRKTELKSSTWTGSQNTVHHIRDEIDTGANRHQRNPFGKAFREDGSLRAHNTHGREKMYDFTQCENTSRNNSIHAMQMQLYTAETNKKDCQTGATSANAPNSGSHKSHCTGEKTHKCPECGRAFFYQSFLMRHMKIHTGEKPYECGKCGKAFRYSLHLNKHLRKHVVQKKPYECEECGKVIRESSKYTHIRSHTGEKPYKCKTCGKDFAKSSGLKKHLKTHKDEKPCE
UniProt P23771: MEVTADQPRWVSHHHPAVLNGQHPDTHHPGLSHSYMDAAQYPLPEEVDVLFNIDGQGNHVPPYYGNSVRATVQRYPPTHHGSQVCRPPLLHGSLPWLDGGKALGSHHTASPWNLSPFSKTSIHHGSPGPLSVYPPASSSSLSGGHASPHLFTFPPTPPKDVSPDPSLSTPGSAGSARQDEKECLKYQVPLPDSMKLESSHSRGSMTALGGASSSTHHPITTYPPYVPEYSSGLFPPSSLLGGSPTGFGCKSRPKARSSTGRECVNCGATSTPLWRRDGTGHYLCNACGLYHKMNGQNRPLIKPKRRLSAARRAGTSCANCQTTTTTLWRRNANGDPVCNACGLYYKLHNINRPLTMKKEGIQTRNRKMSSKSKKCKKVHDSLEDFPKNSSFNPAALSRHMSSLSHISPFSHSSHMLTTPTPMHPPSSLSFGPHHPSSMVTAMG
UniProt Q8IW36: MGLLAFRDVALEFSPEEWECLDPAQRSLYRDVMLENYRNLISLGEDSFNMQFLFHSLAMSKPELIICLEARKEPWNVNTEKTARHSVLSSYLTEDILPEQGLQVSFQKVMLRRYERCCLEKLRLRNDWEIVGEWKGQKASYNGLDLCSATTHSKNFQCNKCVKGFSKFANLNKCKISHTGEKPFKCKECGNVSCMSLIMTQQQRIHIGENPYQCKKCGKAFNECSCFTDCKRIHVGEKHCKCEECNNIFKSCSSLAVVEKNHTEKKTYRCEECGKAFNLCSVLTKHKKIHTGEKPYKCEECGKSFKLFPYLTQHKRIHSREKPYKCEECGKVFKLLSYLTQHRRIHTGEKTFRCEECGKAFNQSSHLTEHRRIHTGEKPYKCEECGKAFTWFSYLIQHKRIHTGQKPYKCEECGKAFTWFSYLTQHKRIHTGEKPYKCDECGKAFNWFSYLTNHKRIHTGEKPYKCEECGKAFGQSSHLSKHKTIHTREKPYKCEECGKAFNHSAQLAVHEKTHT

Key:
Experiment in all cases: protein microarray
Conditions in all cases: 10-fold cold unmethylated competitor; 5mC at CpG (SssI, both strands); recombinant protein; protein details: GST (N-terminal); label: Cy5
ZNF416 (Homo sapiens) = ZNF416 (Homo sapiens) (UniProt Q9BWM5)
RNF138 (Homo sapiens) = molecular target: T1, RNF138 (Homo sapiens) (UniProt Q8WVD3)
T1 sequence (looked up, limits assumed): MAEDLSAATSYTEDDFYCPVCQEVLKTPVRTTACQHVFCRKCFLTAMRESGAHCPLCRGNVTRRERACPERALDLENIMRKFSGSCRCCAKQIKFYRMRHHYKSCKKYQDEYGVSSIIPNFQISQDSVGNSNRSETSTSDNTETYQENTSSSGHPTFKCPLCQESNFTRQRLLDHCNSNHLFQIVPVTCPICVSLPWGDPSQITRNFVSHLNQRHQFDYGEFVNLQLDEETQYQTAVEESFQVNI

GATA4 (Homo sapiens) = GATA4 (Homo sapiens) (UniProt P43694)
RXRA (Homo sapiens) = RXRA (Homo sapiens) (UniProt P19793)
NRF1 (Homo sapiens) = molecular target: T2, NRF1 (Homo sapiens) (UniProt Q16656)
T2 sequence (looked up, limits assumed): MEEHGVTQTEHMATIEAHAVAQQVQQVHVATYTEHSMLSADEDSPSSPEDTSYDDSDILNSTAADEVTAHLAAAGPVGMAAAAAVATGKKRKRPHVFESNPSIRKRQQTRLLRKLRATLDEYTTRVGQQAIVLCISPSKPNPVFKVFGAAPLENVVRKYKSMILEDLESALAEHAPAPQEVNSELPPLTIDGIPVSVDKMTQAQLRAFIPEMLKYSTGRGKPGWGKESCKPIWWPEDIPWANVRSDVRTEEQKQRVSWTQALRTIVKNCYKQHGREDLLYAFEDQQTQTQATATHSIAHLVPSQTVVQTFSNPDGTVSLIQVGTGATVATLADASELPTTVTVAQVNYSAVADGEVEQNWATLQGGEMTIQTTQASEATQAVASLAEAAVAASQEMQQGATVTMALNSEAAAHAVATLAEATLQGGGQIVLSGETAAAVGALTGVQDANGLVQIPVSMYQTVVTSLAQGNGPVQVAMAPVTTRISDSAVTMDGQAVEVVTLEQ

HOXA5 (Homo sapiens) = HOXA5 (Homo sapiens) (UniProt P20719)
PPARG (Homo sapiens) = PPARG (Homo sapiens) (UniProt P37231)
HOXA9 (Homo sapiens) = HOXA9 (Homo sapiens) (UniProt P31269)
BCL3 (Homo sapiens) = molecular target: T3, BCL3 (Homo sapiens) (UniProt P20749)
T3 sequence (looked up, limits assumed): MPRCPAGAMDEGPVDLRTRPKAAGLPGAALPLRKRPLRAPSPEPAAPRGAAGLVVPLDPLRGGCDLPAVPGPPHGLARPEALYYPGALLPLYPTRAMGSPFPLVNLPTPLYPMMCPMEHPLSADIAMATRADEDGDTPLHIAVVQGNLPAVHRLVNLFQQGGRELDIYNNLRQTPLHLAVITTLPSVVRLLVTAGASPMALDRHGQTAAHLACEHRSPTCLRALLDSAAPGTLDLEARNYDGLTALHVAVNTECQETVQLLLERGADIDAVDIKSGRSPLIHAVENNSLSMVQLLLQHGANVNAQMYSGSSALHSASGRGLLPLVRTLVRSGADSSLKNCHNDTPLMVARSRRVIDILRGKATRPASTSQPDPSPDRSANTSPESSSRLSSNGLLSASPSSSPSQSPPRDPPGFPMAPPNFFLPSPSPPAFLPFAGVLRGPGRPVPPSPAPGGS

E2F3 (Homo sapiens) = E2F3 (Homo sapiens) (UniProt O00716)
KEAP1 (Homo sapiens) = KEAP1 (Homo sapiens) (UniProt Q14145)
SCAPER (Homo sapiens) = molecular target: T4, SCAPER (Homo sapiens) (UniProt Q9BY12)
T4 sequence (looked up, limits assumed): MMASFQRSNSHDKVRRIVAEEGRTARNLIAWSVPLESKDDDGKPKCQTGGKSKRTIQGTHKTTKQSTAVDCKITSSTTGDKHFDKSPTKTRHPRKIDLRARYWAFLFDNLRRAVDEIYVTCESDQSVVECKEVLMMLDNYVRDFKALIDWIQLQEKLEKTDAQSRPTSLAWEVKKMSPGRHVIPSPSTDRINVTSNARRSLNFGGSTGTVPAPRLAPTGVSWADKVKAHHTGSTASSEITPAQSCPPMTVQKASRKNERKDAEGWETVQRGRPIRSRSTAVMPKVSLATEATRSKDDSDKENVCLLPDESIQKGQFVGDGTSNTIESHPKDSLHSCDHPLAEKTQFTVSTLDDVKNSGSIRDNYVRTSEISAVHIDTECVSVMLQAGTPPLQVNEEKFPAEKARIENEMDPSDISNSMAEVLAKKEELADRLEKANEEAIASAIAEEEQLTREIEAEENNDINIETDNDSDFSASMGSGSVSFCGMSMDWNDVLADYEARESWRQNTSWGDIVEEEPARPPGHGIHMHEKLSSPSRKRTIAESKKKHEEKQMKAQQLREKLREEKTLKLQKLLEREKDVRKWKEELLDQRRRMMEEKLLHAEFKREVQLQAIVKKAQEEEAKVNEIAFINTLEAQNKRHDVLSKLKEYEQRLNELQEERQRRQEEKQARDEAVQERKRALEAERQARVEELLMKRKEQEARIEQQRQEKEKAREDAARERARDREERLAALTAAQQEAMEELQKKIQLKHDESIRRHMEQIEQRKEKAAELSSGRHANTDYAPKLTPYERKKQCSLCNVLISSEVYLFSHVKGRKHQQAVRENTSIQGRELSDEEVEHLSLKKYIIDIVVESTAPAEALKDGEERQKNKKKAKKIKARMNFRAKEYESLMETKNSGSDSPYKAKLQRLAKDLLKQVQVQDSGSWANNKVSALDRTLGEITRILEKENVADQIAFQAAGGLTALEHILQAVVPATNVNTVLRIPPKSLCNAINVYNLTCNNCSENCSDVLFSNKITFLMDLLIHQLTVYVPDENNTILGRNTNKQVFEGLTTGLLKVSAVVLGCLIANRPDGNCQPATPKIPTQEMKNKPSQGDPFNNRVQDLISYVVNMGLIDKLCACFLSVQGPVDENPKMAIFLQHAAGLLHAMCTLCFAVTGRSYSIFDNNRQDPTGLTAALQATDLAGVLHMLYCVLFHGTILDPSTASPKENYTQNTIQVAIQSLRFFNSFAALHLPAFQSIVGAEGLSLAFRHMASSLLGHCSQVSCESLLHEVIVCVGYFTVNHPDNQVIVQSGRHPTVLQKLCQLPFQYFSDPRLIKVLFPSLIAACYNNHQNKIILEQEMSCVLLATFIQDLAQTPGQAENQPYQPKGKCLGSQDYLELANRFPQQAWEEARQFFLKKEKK

ZNF28 (Homo sapiens) = ZNF28 (Homo sapiens) (UniProt P17035)
SMAD4 (Homo sapiens) = molecular target: T5, SMAD4 (Homo sapiens) (UniProt Q13485)
T5 sequence (looked up, limits assumed): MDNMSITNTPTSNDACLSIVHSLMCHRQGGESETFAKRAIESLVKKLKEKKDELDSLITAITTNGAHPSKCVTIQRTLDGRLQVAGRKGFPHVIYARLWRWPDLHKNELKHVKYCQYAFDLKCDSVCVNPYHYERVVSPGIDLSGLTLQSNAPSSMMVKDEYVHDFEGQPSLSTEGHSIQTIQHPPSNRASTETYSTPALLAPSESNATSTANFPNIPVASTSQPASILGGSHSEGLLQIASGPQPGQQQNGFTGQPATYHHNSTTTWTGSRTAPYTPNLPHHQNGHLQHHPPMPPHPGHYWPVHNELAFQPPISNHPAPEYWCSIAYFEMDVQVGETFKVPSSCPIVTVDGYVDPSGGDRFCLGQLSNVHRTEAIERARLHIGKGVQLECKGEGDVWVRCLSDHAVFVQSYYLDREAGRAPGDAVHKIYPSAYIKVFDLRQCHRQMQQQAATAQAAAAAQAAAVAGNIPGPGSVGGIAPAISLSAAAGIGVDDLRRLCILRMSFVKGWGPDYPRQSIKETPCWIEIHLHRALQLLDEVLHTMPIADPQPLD

ZNF114 (Homo sapiens) = ZNF114 (Homo sapiens) (UniProt Q8NC26)
GATA3 (Homo sapiens) = GATA3 (Homo sapiens) (UniProt P23771)
ZNF695 (Homo sapiens) = ZNF695 (Homo sapiens) (UniProt Q8IW36)
NFATC1 (Homo sapiens) = molecular target: T6, NFATC1 (Homo sapiens) (UniProt O95644)
T6 sequence (looked up, limits assumed): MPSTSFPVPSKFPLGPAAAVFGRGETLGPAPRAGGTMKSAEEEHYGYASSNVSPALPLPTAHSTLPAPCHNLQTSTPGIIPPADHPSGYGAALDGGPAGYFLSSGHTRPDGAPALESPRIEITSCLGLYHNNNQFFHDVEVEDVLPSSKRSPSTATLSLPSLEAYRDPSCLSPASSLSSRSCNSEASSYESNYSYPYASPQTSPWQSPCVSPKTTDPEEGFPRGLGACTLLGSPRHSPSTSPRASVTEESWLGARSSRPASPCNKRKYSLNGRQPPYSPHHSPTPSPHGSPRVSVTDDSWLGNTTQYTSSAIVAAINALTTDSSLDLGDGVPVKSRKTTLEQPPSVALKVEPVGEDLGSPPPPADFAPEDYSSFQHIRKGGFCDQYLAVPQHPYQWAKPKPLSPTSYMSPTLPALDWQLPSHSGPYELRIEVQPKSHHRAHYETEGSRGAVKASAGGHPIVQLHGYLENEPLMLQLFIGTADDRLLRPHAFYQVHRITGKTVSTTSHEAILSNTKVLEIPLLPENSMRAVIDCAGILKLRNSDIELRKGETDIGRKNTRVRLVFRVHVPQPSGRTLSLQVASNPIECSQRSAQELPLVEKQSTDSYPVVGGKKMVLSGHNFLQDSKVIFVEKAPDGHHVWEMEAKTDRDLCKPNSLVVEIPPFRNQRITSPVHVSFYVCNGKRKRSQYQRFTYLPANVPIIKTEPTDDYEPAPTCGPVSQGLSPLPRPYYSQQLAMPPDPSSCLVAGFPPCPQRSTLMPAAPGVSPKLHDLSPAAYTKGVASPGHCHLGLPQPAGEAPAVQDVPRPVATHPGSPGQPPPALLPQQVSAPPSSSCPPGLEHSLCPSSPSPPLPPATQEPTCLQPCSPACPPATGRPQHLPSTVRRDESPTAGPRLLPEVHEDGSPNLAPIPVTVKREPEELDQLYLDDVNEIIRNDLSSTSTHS

Measured: binding result

ACGTGCAGTTTACGTGCAGCCCTATAGTGAGTGCTATTA (double strand) [M452]
not listed: ZNF695 (Homo sapiens) | NFATC1 (Homo sapiens)
binds: all other assays above

CTCCGCCCAAACTCCGCCCCCCTATAGTGAGTGCTATTA (double strand) [M67]
not listed: HOXA9 (Homo sapiens) | KEAP1 (Homo sapiens) | SMAD4 (Homo sapiens) | GATA3 (Homo sapiens) | ZNF695 (Homo sapiens) | NFATC1 (Homo sapiens)
binds: all other assays above

TTTCCGGAAAGGGTTTCCGGAAACCCTATAGTGAGTGCTATTA (double strand) [M2]
binds: ZNF416 (Homo sapiens) | GATA4 (Homo sapiens) | HOXA5 (Homo sapiens) | ZNF695 (Homo sapiens) | E2F3 (Homo sapiens) | NFATC1 (Homo sapiens) | SCAPER (Homo sapiens) | ZNF114 (Homo sapiens)
